# The list shows a part of the results.
# Experiments:
# Assay in all cases: glycan array binding signal (z-score within array); higher = stronger binding
# Conditions in all cases: glycan notation: IUPAC condensed, linker removed
# [1] = target: Neu5Ac(a2-3)Gal(b1-4)GlcNAc(b1-3)Gal(b1-4)[Fuc(a1-3)]GlcNAc
# In short: (§1)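 The Consortium for Functional Glycomics database supplied 3228 glycan arrays, of which those lacking an available protein sequence were dropped. The binding signal, a within-array Z-score, was averaged across arrays of the same protein sequence and across linkers. Negative scores can be read as non-binding.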
# [2] = target: Neu5Ac(a2-3)Gal(b1-4)GlcNAc(b1-3)GalNAc
# In short: as §1
# [3] = target: Neu5Ac(a2-3)Gal(b1-4)GlcNAc(b1-6)[Gal(b1-3)]GalNAc
# In short: as §1
# [4] = target: Neu5Ac(a2-3)Gal(b1-4)GlcNAc(b1-6)[Neu5Ac(a2-3)Gal(b1-3)]GalNAc
# In short: as §1
# [5] = target: Neu5Ac(a2-3)Gal(b1-4)GlcNAc6S
# In short: as §1
# [6] = target: Neu5Ac(a2-3)Gal(b1-4)[Fuc(a1-3)]GlcNAc
# In short: as §1
# [7] = target: Neu5Ac(a2-3)Gal(b1-4)[Fuc(a1-3)]GlcNAc(b1-3)Gal
# In short: as §1
# [8] = target: Neu5Ac(a2-3)Gal(b1-4)[Fuc(a1-3)]GlcNAc(b1-3)Gal(b1-4)GlcNAc
# In short: as §1
# [9] = target: Neu5Ac(a2-3)Gal(b1-4)[Fuc(a1-3)]GlcNAc(b1-3)Gal(b1-4)[Fuc(a1-3)]GlcNAc(b1-3)Gal(b1-4)[Fuc(a1-3)]GlcNAc
# In short: as §1
# [10] = target: Neu5Ac(a2-3)Gal(b1-4)[Fuc(a1-3)]GlcNAc(b1-6)[Gal(b1-3)]GalNAc
# In short: as §1
# [11] = target: Neu5Ac(a2-3)Gal(b1-4)[Fuc(a1-3)]GlcNAc(b1-6)[Neu5Ac(a2-3)Gal(b1-3)]GalNAc
# In short: as §1
# [12] = target: Neu5Ac(a2-3)Gal(b1-4)[Fuc(a1-3)]GlcNAc6S
# In short: as §1
# [13] = target: Neu5Ac(a2-3)Gal6S(b1-4)GlcNAc
# In short: as §1
# [14] = target: Neu5Ac(a2-3)Gal6S(b1-4)[Fuc(a1-3)]GlcNAc
# In short: as §1
# Neu5Ac(a2-3)GalNAc = target: Neu5Ac(a2-3)GalNAc
# In short: as §1
# [15] = target: Neu5Ac(a2-3)GalNAc(b1-4)GlcNAc
# In short: as §1
# [16] = target: Neu5Ac(a2-3)[GalNAc(b1-4)]Gal(b1-4)Glc
# In short: as §1
# [17] = target: Neu5Ac(a2-3)[GalNAc(b1-4)]Gal(b1-4)GlcNAc
# In short: as §1
# [18] = target: Neu5Ac(a2-3)[Neu5Ac(a2-6)]GalNAc
# In short: as §1
# Neu5Ac(a2-6)Gal = target: Neu5Ac(a2-6)Gal
# In short: as §1
# Neu5Ac(a2-6)Gal(b1-4)Glc = target: Neu5Ac(a2-6)Gal(b1-4)Glc
# In short: as §1
# [19] = target: Neu5Ac(a2-6)Gal(b1-4)GlcNAc
# In short: as §1
# [20] = target: Neu5Ac(a2-6)Gal(b1-4)GlcNAc(b1-2)Man(a1-3)Man(b1-4)GlcNAc(b1-4)GlcNAc
# In short: as §1
# [21] = target: Neu5Ac(a2-6)Gal(b1-4)GlcNAc(b1-2)Man(a1-3)[Gal(b1-4)GlcNAc(b1-2)Man(a1-6)]Man(b1-4)GlcNAc(b1-4)GlcNAc
# In short: as §1
# [22] = target: Neu5Ac(a2-6)Gal(b1-4)GlcNAc(b1-2)Man(a1-3)[GlcNAc(b1-2)Man(a1-6)]Man(b1-4)GlcNAc(b1-4)GlcNAc
# In short: as §1
# [23] = target: Neu5Ac(a2-6)Gal(b1-4)GlcNAc(b1-2)Man(a1-3)[GlcNAc(b1-2)Man(b1-4)GlcNAc(b1-2)Man(a1-6)]Man(b1-4)GlcNAc(b1-4)GlcNAc
# In short: as §1
# [24] = target: Neu5Ac(a2-6)Gal(b1-4)GlcNAc(b1-2)Man(a1-3)[Man(a1-6)]Man(b1-4)GlcNAc(b1-4)GlcNAc
# In short: as §1
# [25] = target: Neu5Ac(a2-6)Gal(b1-4)GlcNAc(b1-2)Man(a1-3)[Neu5Ac(a2-6)Gal(b1-4)GlcNAc(b1-2)Man(a1-6)]Man(b1-4)GlcNAc(b1-4)GlcNAc
# In short: as §1
# [26] = target: Neu5Ac(a2-6)Gal(b1-4)GlcNAc(b1-2)Man(a1-6)Man(b1-4)GlcNAc(b1-4)GlcNAc
# In short: as §1
# [27] = target: Neu5Ac(a2-6)Gal(b1-4)GlcNAc(b1-2)Man(a1-6)[Gal(b1-4)GlcNAc(b1-2)Man(a1-3)]Man(b1-4)GlcNAc(b1-4)GlcNAc
# In short: as §1
# [28] = target: Neu5Ac(a2-6)Gal(b1-4)GlcNAc(b1-2)Man(a1-6)[GlcNAc(b1-2)Man(a1-3)]Man(b1-4)GlcNAc(b1-4)GlcNAc
# In short: as §1
# [29] = target: Neu5Ac(a2-6)Gal(b1-4)GlcNAc(b1-2)Man(a1-6)[Man(a1-3)]Man(b1-4)GlcNAc(b1-4)GlcNAc
# In short: as §1
# [30] = target: Neu5Ac(a2-6)Gal(b1-4)GlcNAc(b1-3)Gal(b1-3)GlcNAc
# In short: as §1
# [31] = target: Neu5Ac(a2-6)Gal(b1-4)GlcNAc(b1-3)Gal(b1-4)GlcNAc
# In short: as §1
# [32] = target: Neu5Ac(a2-6)Gal(b1-4)GlcNAc(b1-3)Gal(b1-4)GlcNAc(b1-3)Gal(b1-4)GlcNAc
# In short: as §1
# [33] = target: Neu5Ac(a2-6)Gal(b1-4)GlcNAc(b1-3)Gal(b1-4)[Fuc(a1-3)]GlcNAc(b1-3)Gal(b1-4)[Fuc(a1-3)]GlcNAc
# In short: as §1
# [34] = target: Neu5Ac(a2-6)Gal(b1-4)GlcNAc(b1-3)GalNAc
# In short: as §1
# [35] = target: Neu5Ac(a2-6)Gal(b1-4)GlcNAc6S
# In short: as §1
binder,measurement,setting,value
"4F2hc (Homo sapiens), P08195 (protein) WWHTGALYRIGDLQAFQGHGAGNLAGLKGRLDYLSSLKVKGLVLGPIHKNQKDDVAQTDLLQIDPNFGSKEDFDSLLQSAKKKSIRVILDLTPNYRGENSWFSTQVDTVATKVKDALEFWLQAGVDGFQVRDIENLKDASSFLAEWQNITKGFSEDRLLIAGTNSSDLQQILSLLESNKDLLLTSSYLSDSGSTGEHTKSLVTQYLNATGNRWCSWSLSQARLLTSFLPAQLLRLYQLMLFTLPGTPVFSYGDEIGLDAAALPGQPMEAPVMLWDESSFPDIPGAVSANMTVKGQSEDPGSLLSLFRRLSDQRSKERSLLHGDFHAFSAGPGLFSYIRHWDQNERFLVVLNFGDVGLSAGLQASDLPASASLPAKADLLLSTQPGREEGSPLELERLKLEPHEGLLLRFPYAA",glycan array binding signal (z-score),[1],-0.265
same,glycan array binding signal (z-score),[2],-0.993
same,glycan array binding signal (z-score),[3],-1.08
same,glycan array binding signal (z-score),[4],-0.991
same,glycan array binding signal (z-score),[5],2.27
same,glycan array binding signal (z-score),[6],-0.451
same,glycan array binding signal (z-score),[7],-0.785
same,glycan array binding signal (z-score),[8],0.493
same,glycan array binding signal (z-score),[9],-0.062
same,glycan array binding signal (z-score),[10],-0.685
same,glycan array binding signal (z-score),[11],3.35
same,glycan array binding signal (z-score),[12],0.867
same,glycan array binding signal (z-score),[13],-0.272
same,glycan array binding signal (z-score),[14],0.518
same,glycan array binding signal (z-score),Neu5Ac(a2-3)GalNAc,-1.16
same,glycan array binding signal (z-score),[15],0.413
same,glycan array binding signal (z-score),[16],-0.955
same,glycan array binding signal (z-score),[17],-0.5
same,glycan array binding signal (z-score),[18],-1.05
same,glycan array binding signal (z-score),Neu5Ac(a2-6)Gal,-0.336
same,glycan array binding signal (z-score),Neu5Ac(a2-6)Gal(b1-4)Glc,-0.089
same,glycan array binding signal (z-score),[19],-0.542
same,glycan array binding signal (z-score),[20],0.328
same,glycan array binding signal (z-score),[21],-0.097
same,glycan array binding signal (z-score),[22],-0.141
same,glycan array binding signal (z-score),[23],-0.786
same,glycan array binding signal (z-score),[24],0.082
same,glycan array binding signal (z-score),[25],-0.17
same,glycan array binding signal (z-score),[26],-0.35
same,glycan array binding signal (z-score),[27],-0.048
same,glycan array binding signal (z-score),[28],-1.01
same,glycan array binding signal (z-score),[29],5.26
same,glycan array binding signal (z-score),[30],-1.04
same,glycan array binding signal (z-score),[31],-0.747
same,glycan array binding signal (z-score),[32],-1.15
same,glycan array binding signal (z-score),[33],-1.09
same,glycan array binding signal (z-score),[34],-0.83
same,glycan array binding signal (z-score),[35],-0.493

# Already shown: an excerpt of the list.
binder,measurement,setting,value
"4F2hc (Homo sapiens), P08195 (protein) WWHTGALYRIGDLQAFQGHGAGNLAGLKGRLDYLSSLKVKGLVLGPIHKNQKDDVAQTDLLQIDPNFGSKEDFDSLLQSAKKKSIRVILDLTPNYRGENSWFSTQVDTVATKVKDALEFWLQAGVDGFQVRDIENLKDASSFLAEWQNITKGFSEDRLLIAGTNSSDLQQILSLLESNKDLLLTSSYLSDSGSTGEHTKSLVTQYLNATGNRWCSWSLSQARLLTSFLPAQLLRLYQLMLFTLPGTPVFSYGDEIGLDAAALPGQPMEAPVMLWDESSFPDIPGAVSANMTVKGQSEDPGSLLSLFRRLSDQRSKERSLLHGDFHAFSAGPGLFSYIRHWDQNERFLVVLNFGDVGLSAGLQASDLPASASLPAKADLLLSTQPGREEGSPLELERLKLEPHEGLLLRFPYAA",glycan array binding signal (z-score),[11],3.35
same,glycan array binding signal (z-score),[12],0.867

# Source: the supplement of paper PMC8728848
